# Reference: PubChem BioAssay AID504834 (National Center for Advancing Translational Sciences (NCATS), 2011)
# About 22,000 (6.9%) of roughly 320,000 compounds were called active. The inconclusive results got no clear call from the source; some entries with a clear call stand among them for comparison. The call rests on the fitted dose curve; in most records, active means well fitted inhibition curve with a large enough effect; inconclusive means small, poorly fitted or top-dose-only effect, or another doubt; inactive means no such curve, though single readings can be large or run the other way. Potencies beside an inconclusive call are fits to weak or partial responses and may not hold up.
# Assay: Primary qHTS for delayed death inhibitors of the malarial parasite plastid, 96 hour incubation
# Conditions: P. falciparum luciferase reporter growth; series mostly up to 28.7 µM
# Outline: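 Readout is luminescence from an integrated firefly luciferase in P. falciparum. Red cells, 2% hematocrit and 0.05% parasitemia final, were cultured with compound through two parasite generations (96 hours) at 37 C, 5% CO2.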
# Potency means the concentration at half of the fitted maximal effect.
row,SMILES,Potency
1,O=C(CSc1nnc(CNC(=O)c2ccc(F)cc2)o1)Nc1nccs1,inactive
2,COc1ccc(/C=C/C2=NN(Cc3ccccc3)C(=O)CC2)cc1,inactive
3,Cn1c(=O)c(/C=C/c2ccccc2)nc2ccccc21,inactive
4,Cc1ccnc(NC(=O)c2ccc(OCc3c(C)noc3C)cc2)c1,inactive
5,Cc1cccc(NC(=S)N2CCC(c3nc4ccccc4o3)CC2)c1C,inactive
6,NC(=O)C1CCCN(C(=O)CCc2nnc(C3(c4ccc(Cl)cc4)CCC3)o2)C1 (centres undefined),"inconclusive: 10.4 µM [inhibitor, single point]"
7,CC(C)CN(C(=O)CSc1n[nH]c(-c2cccs2)n1)C1CCS(=O)(=O)C1 (centres undefined),"inconclusive: 18.5 µM [inhibitor, single point]"
8,Cc1ccc(C(=O)NCCCNC(=O)COc2ccccc2Cl)cn1,inactive
9,O=C(CN1CCOCC1)Nc1ccccc1C(=O)O,inactive
10,COc1ccc(NC(c2ccccc2F)P(=O)(Oc2ccccc2)Oc2ccccc2)cc1 (centres undefined),"inconclusive: 18.5 µM [inhibitor, single point]"
11,C=CCn1c(SCC(=O)NCc2ccc3c(c2)OCO3)nc2scc(-c3ccc(F)cc3)c2c1=O,inactive
12,CC(=O)OCC(=O)c1ccc2ccn(C(C)=O)c2c1,active: 10.4 µM
13,COc1ccc(CCN(Cc2cc3cccc(C)c3[nH]c2=O)C(=O)NC2CCCCC2)cc1OC,active: 2.94 µM
14,Cc1ccc(-n2c(C)cc(/C=N/NC(=O)c3ccncc3)c2C)c(C)c1,active: 1.65 µM
15,CCCCn1cnc2c1c(=O)n(C)c(=O)n2C,inactive
16,CCCC(=O)NC(c1ccc(N(C)C)cc1)c1ccc2cccnc2c1O (centres undefined),inactive
17,O=C(c1cc2ccccc2oc1=O)N1CCN(CCc2ccccc2)CC1,active: 9.28 µM
18,O=C(OC(C(=O)Nc1ccc([N+](=O)[O-])cc1Br)c1ccccc1)c1ccccc1 (centres undefined),"inconclusive: 10.4 µM [inhibitor, single point]"
19,COc1ccc2c(c1)C(=O)N(c1ccc(C)cc1C)C(=O)C2,inactive
20,Oc1ccc(Cl)cc1CNCc1ccc(F)cc1,active: 5.22 µM
21,COc1ccc(-c2nn(-c3ccccc3)cc2/C=C(\CC(=O)O)c2nc3ccccc3s2)cc1OC,"inconclusive: 11.7 µM [inhibitor, partial curve]"
22,N/C(=N\OCc1ccccc1)c1nonc1N,"inconclusive: 13.1 µM [inhibitor, single point]"
23,CC(C)C(NS(=O)(=O)c1cccs1)C(=O)N1CCc2ccccc2C1 (centres undefined),"inconclusive: 18.5 µM [inhibitor, single point]"
24,Cc1ccc(-n2c(C)c(C)c3c(N)ncnc32)cc1,inactive
25,Cc1ccc(NC(=S)NCC23C=CC(O2)C2C(=O)N(c4ccc(C)cc4)C(=O)C23)cc1 (centres undefined),"inconclusive: 18.5 µM [inhibitor, single point]"

# Quoted at random: two entries already listed
row,SMILES,Potency
10,COc1ccc(NC(c2ccccc2F)P(=O)(Oc2ccccc2)Oc2ccccc2)cc1 (centres undefined),"inconclusive: 18.5 µM [inhibitor, single point]"
5,Cc1cccc(NC(=S)N2CCC(c3nc4ccccc4o3)CC2)c1C,inactive

# Later entries

row,SMILES,Potency
1,COc1cc(C2NC(=S)NC3=C2C(=O)CCC3)ccc1O (centres undefined),"inconclusive: 1.85 µM [inhibitor, partial curve, poor fit]"
2,COc1cccc(C(=O)/C=C/Nc2ccc(S(=O)(=O)Nc3onc(C)c3C)cc2)c1,inactive
3,OCC[C@@H]1C[C@@H](O)[C@H](O)[C@]2(Cc3ccccc3CO2)O1,"inconclusive: 9.28 µM [inhibitor, single point]"
4,Cc1cc[n+](CC(=O)Nc2ccccc2)cc1,"inconclusive: 10.4 µM [inhibitor, single point]"
5,O=C(Nc1cccc(F)c1)C1CCCN1C(=O)OCc1ccccc1 (centres undefined),"inconclusive: 5.86 µM [inhibitor, single point]"
6,CN(C)CCCOC(=O)c1sc2ccccc2c1Cl,inactive
7,N#CC1=C(N)C(C#N)(C#N)[C@H](c2ccoc2)[C@H]2CN(Cc3ccccc3)CC=C12,"inconclusive: 18.5 µM [inhibitor, single point]"
8,NS(=O)(=O)c1cccc(NC(=O)CSc2nnc(C3CC3)n2Cc2ccccc2)c1,inactive
9,O=C(NC1CCCC1)c1cc(=O)[nH]c2ccccc12,"inconclusive: 18.5 µM [inhibitor, single point]"
10,CCOC(=O)C1(Cc2ccccc2)CCN(Cc2cccc3c2OCO3)CC1,"inconclusive: 13.1 µM [inhibitor, single point]"
11,Cc1ccc(NC(=O)c2cnccn2)c(Br)c1,"inconclusive: 16.5 µM [inhibitor, single point]"
12,c1cc2c(cc1NC1CCCCCC1)OCO2,"inconclusive: 14.7 µM [inhibitor, single point]"
13,CN(Cc1nc2ccccc2n1C)c1ccccc1,"inconclusive: 18.5 µM [inhibitor, single point]"
14,O=C(Cc1ccc(Br)cc1)N1CCN(C(=O)c2ccco2)CC1,inactive
15,CCc1nc(SCC(=O)NCCc2ccccc2)c2oc3ccccc3c2n1,"inconclusive: 10.4 µM [inhibitor, single point]"
16,Cc1nn2c(N3CCN(CCO)CC3)c3c(nc2c1-c1ccccc1)CCCC3,"inconclusive: 5.22 µM [inhibitor, partial curve]"
17,Cc1onc(-c2ccccc2Cl)c1C(=O)N1CCCc2ccccc21,"inconclusive: 10.4 µM [inhibitor, partial curve]"
18,CCc1ccccc1-n1nnnc1SCC(=O)Nc1ccc(N2CCN(C)CC2)cc1,"inconclusive: 18.5 µM [inhibitor, single point]"
19,CC(=O)CCc1ccc(OCC(=O)Nc2cccc(S(=O)(=O)N(C)c3ccccc3)c2)cc1,"inconclusive: 0.0029 µM [inhibitor, full curve, poor fit]"
20,O=C(NCCN1C(=O)S/C(=C\c2ccccc2)C1=O)C1CCN(S(=O)(=O)c2cccs2)CC1,inactive
21,CC(=O)Nc1ccc2c(CN3C(=O)NC(C)(c4ccc(C)cc4)C3=O)cc(=O)oc2c1 (centres undefined),"inconclusive: 18.5 µM [inhibitor, single point]"
22,CCNC(=O)COc1ccc(Br)cc1Cl,inactive
23,Cc1ccc(S(=O)(=O)N2CCCCC2)cc1NC(=O)CNc1ccccc1N1CCCC1=O,"inconclusive: 18.5 µM [inhibitor, single point]"
24,Cc1cc(=O)[nH]c2ccc(S(=O)(=O)NC3CCCCC3)cc12,active: 10.4 µM
